Results on five molecules are retold here after US20230399412A1 (NANJING IASO BIOTECHNOLOGY, published 2023).

No constants are given. Whether binding was seen depends on the method and setting. Some results given as binding are weak or reduced against the parent protein; the word gives no strength. For some assays here: Where a sequence is shown, tags or fusion partners need not be part of it.

The target in assay [1] is T1, CD70 Protein, Human, Recombinant (human FC Tag) (Sino Biological, 10780-H01H) (human) (UniProt P32970).
T1 sequence (looked up): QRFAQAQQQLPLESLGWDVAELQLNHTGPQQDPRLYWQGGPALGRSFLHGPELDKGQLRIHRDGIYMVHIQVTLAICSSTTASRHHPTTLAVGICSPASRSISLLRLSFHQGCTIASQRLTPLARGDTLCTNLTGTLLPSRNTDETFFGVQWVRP
Description: phage ELISA. A general note: In an ELISA, binding on a coated surface is turned into a signal by an enzyme label.

For assay [2], the target named is T2, Human CD70/CD27 Ligand Protein-his-Trimer-Biotin (Kactus, CD7-HM271) (human) (UniProt P32970).
T2 sequence (biotinylated, looked up): T1 sequence (looked up)
Description: phage ELISA.

The target in assay [3] is T3, Human CD70/CD27 Ligand Protein (human FC Tag)-Biotin (Kactus, CD7-HM270) (human) (UniProt P32970).
T3 sequence (biotinylated, looked up): T1 sequence (looked up)
In words: phage ELISA.

Assay [4] concerns the target T4, Biotinylated Human CD27 Ligand, HIS, Avitag (ACRO biosystem, CDL-H82Q9) (human) (UniProt P32970).
T4 sequence (biotinylated (Avitag), looked up): T1 sequence (looked up)
In words: phage ELISA.

Assay [5] deals with T5, Human CD70/CD27 Ligand Protein-his-Trimer (Kactus, CD7-HM271-1) (human) (UniProt P32970).
T5 sequence (looked up): T1 sequence (looked up)
In words: phage ELISA.

Assay [6] has as its target T6, Biotinylated Human CD27 Ligand, Avitag, human Fc Tag (ACRO biosystem, TN7-H82F4) (human) (UniProt P32970).
T6 sequence (biotinylated (Avitag), looked up): T1 sequence (looked up)
In words: phage ELISA.

Assay [7] has as its target T7, CD70 on the cell surface of CD70-positive cell lines (UniProt P32970).
T7 sequence (looked up): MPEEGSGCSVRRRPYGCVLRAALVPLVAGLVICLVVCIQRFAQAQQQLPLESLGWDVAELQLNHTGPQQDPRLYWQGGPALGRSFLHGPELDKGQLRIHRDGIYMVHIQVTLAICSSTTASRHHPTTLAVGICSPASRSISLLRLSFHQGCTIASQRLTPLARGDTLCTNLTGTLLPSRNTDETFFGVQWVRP
In words: phage FACS on CD70-positive cell lines (Raji, U266).

B1: phage monoclonal antibody clone #20 (VHH)
VHH: EVQLLESGGGLVQPGGSLRLSCAASGFTFSSYAMGWVRQAPGKGLEWVSSISGYGEETYYADSVKGRFTISRDNSKNTLYLQMNSLRAEDTAVYYCARFYYRYWKEFDYWGQGTLVTVSS
notes: single-domain antibody (heavy chain variable region alone); also called VHH20; VHH 20
Turning to B1, the binding entry in assay [1] is listed as “binds”.

B2: phage monoclonal antibody clone #6 (scFv)
scFv: QAVLTQPPSASATPGQRVSISCSGSSSNIGRNTVNWYQHLPGTAPKLLIYSNDHRPSGVPDRFSGSQSGTSASLAISGLQSEDEADYYCASWDDSLTGWVFGGGTKVTVLGSRGGGGSGGGGSGGGGSLEMAQVQLVQSGAEVKKAGSSLKVSCKANGGSFTNYLINWVRQAPGQGLEWMGGIIPVYGTPIYSQKFQGRVTFTADEPTRTAYMELSSLTFEDTAVYYCVREDEGYGDLYLAYWGQGTLVTVSS
notes: also called scFv 06; Scfv06
In the case of B2, the binding result in assay [1] is “binds”.

B3: phage monoclonal antibody clone #21 (VHH)
VHH: EVQLLESGGGLVQPGGSLRLSCAASGFTFSNYAMGWVRQAPGKGLEWVSSITGLGGNMYYADSVKGRFTISRDNSKNTLYLQMNSLRAEDTAVYYCARMYYSQGVNNYSYPSTDIWGQGTLVTVSS
notes: single-domain antibody (heavy chain variable region alone); also called VHH21; VHH 21
For the molecule B3, the binding entry in assay [1] was “binds”.

B4: phage monoclonal antibody clone #13 (VHH)
VHH: EVQLLESGGGLVQPGGSLRLSCAASGFTFSSEAMGWVRQAPGKGLEWVSSINGSGRNTYYADSVKGRFTISRDNSKNTLYLQMNSLRAEDTAVYYCARKHGEYYDSGYDVWGQGTLVTVSS
notes: single-domain antibody (heavy chain variable region alone); also called VHH13; VHH 13
For the molecule B4, the binding result in assay [2], in assay [3], in assay [4], in assay [5], in assay [1] and in assay [6] was “binds” throughout. In addition, in assay [7], the binding entry is “binds”.

B5: phage monoclonal antibody clone #9 (VHH)
VHH: EVQLLESGGGLVQPGGSLRLSCAASGFTFNIDAMGWVRQAPGKGLEWVSSISSSGGTTYYADSVKGRFTISRDNSKNTLYLQMNSLRAEDTAVYYCARSRYSVPDGRGSYDVWGQGTLVTVSS
notes: single-domain antibody (heavy chain variable region alone); also called VHH 09; 09 antibody
Consider B5, for which the binding entry in assay [1] was “binds”.
